From article PMC4432227 come the findings set out here.

Chains of the proteins cited; added tags and fusions are not shown.
UniProt Q9NVJ2: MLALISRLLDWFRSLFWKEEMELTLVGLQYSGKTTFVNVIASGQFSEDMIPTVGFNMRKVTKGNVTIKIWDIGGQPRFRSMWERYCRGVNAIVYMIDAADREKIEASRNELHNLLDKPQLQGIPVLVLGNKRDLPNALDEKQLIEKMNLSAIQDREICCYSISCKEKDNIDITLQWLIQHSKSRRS

No constants are given. Whether binding was seen depends on the method and setting. In cells and extracts the contact can be indirect. Some binding calls cover weakened binding; strength is not graded here. Where a sequence is shown, tags or fusion partners need not be part of it.

Experiment [1] has as its target T1, HA–Vps41 (HEK293T) (human) (UniProt P49754).
T1 sequence: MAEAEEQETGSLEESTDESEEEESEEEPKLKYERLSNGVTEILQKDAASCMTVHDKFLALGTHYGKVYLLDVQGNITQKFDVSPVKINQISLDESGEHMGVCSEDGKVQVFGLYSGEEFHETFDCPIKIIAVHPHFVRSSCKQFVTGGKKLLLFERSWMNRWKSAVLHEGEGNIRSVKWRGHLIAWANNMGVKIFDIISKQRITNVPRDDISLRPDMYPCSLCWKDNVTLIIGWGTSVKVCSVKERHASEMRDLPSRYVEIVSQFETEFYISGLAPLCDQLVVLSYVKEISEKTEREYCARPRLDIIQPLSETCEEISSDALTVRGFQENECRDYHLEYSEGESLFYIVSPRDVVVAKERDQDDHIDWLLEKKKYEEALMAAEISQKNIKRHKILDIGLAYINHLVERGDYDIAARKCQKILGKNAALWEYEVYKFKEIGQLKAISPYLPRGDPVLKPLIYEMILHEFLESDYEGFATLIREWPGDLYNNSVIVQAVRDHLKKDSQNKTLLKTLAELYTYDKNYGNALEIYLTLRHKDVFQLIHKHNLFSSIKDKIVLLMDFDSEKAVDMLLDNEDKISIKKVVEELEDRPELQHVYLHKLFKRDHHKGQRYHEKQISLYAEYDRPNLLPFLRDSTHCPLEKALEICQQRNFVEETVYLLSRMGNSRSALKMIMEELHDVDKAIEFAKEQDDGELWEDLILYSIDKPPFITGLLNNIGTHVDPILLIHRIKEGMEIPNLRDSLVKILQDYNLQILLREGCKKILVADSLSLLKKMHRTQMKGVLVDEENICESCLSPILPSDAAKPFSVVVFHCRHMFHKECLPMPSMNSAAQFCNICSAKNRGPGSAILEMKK
The experiment is described as follows: co-IP; transfected HEK293T cell lysates (20 mM Tris-HCl pH 7.4, 150 mM NaCl, 0.5% NP-40, 1 mM sodium orthovanadate), immunoprecipitated with anti-HA.

The target in experiment [2] is T2, HA–Vps41-T146P (HEK293T) (human) (UniProt P49754).
T2 sequence: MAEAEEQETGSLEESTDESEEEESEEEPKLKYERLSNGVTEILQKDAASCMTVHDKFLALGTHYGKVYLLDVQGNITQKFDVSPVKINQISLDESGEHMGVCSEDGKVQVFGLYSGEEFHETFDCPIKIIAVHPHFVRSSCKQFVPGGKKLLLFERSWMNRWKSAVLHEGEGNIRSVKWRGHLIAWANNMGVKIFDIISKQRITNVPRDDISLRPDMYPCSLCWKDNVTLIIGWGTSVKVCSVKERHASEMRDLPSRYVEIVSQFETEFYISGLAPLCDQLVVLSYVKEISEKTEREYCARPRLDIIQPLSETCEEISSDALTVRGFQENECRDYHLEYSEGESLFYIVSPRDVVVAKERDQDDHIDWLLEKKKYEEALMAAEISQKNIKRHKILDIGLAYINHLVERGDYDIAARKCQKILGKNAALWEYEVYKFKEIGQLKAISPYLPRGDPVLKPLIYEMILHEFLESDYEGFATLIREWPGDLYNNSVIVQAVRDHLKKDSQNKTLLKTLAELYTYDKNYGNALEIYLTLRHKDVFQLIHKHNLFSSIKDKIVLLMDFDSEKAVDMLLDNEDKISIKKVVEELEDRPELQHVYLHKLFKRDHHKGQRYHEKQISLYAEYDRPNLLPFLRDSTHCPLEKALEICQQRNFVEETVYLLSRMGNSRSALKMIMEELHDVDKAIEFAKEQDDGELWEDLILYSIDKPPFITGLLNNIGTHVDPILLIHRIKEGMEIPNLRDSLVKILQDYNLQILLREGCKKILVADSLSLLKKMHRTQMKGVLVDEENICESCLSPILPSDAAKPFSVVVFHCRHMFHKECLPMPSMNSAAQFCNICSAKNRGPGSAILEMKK
The experiment is described as above.

A further experiment addresses GST–Arl8b (UniProt Q9NVJ2). In words: pull-down; GST proteins on glutathione-conjugated beads incubated with transfected HeLa cell lysates; immunoblot; only the target purified.

B1: endogenous Vps33a (protein, UniProt Q96AX1 1-596)
chain: MAAHLSYGRVNLNVLREAVRRELREFLDKCAGSKAIVWDEYLTGPFGLIAQYSLLKEHEVEKMFTLKGNRLPAADVKNIIFFVRPRLELMDIIAENVLSEDRRGPTRDFHILFVPRRSLLCEQRLKDLGVLGSFIHREEYSLDLIPFDGDLLSMESEGAFKECYLEGDQTSLYHAAKGLMTLQALYGTIPQIFGKGECARQVANMMIRMKREFTGSQNSIFPVFDNLLLLDRNVDLLTPLATQLTYEGLIDEIYGIQNSYVKLPPEKFAPKKQGDGGKDLPTEAKKLQLNSAEELYAEIRDKNFNAVGSVLSKKAKIISAAFEERHNAKTVGEIKQFVSQLPHMQAARGSLANHTSIAELIKDVTTSEDFFDKLTVEQEFMSGIDTDKVNNYIEDCIAQKHSLIKVLRLVCLQSVCNSGLKQKVLDYYKREILQTYGYEHILTLHNLEKAGLLKPQTGGRNNYPTIRKTLRLWMDDVNEQNPTDISYVYSGYAPLSVRLAQLLSRPGWRSIEEVLRILPGPHFEERQPLPTGLQKKRQPGENRVTLIFFLGGVTFAEIAALRFLSQLEDGGTEYVIATTKLMNGTSWIEALMEKPF
On to B1, for which the binding entry in experiment [1] and in experiment [2] was “binds” throughout.

B2: Myc–Vps18 (protein, UniProt Q9P253 1-973)
chain: MASILDEYENSLSRSAVLQPGCPSVGIPHSGYVNAQLEKEVPIFTKQRIDFTPSERITSLVVSSNQLCMSLGKDTLLRIDLGKANEPNHVELGRKDDAKVHKMFLDHTGSHLLIALSSTEVLYVNRNGQKVRPLARWKGQLVESVGWNKALGTESSTGPILVGTAQGHIFEAELSASEGGLFGPAPDLYFRPLYVLNEEGGPAPVCSLEAERGPDGRSFVIATTRQRLFQFIGRAAEGAEAQGFSGLFAAYTDHPPPFREFPSNLGYSELAFYTPKLRSAPRAFAWMMGDGVLYGALDCGRPDSLLSEERVWEYPEGVGPGASPPLAIVLTQFHFLLLLADRVEAVCTLTGQVVLRDHFLEKFGPLKHMVKDSSTGQLWAYTERAVFRYHVQREARDVWRTYLDMNRFDLAKEYCRERPDCLDTVLAREADFCFRQRRYLESARCYALTQSYFEEIALKFLEARQEEALAEFLQRKLASLKPAERTQATLLTTWLTELYLSRLGALQGDPEALTLYRETKECFRTFLSSPRHKEWLFASRASIHELLASHGDTEHMVYFAVIMQDYERVVAYHCQHEAYEEALAVLARHRDPQLFYKFSPILIRHIPRQLVDAWIEMGSRLDARQLIPALVNYSQGGEVQQVSQAIRYMEFCVNVLGETEQAIHNYLLSLYARGRPDSLLAYLEQAGASPHRVHYDLKYALRLCAEHGHHRACVHVYKVLELYEEAVDLALQVDVDLAKQCADLPEEDEELRKKLWLKIARHVVQEEEDVQTAMACLASCPLLKIEDVLPFFPDFVTIDHFKEAICSSLKAYNHHIQELQREMEEATASAQRIRRDLQELRGRYGTVEPQDKCATCDFPLLNRPFYLFLCGHMFHADCLLQAVRPGLPAYKQARLEELQRKLGAAPPPAKGSARAKEAEGGAATAGPSREQLKADLDELVAAECVYCGELMIRSIDRPFIDPQRYEEEQLSWL
For the molecule B2, the binding result in experiment [1] and in experiment [2] was “binds” in each case.

B3: endogenous Vps11 (protein, UniProt Q9H270 1-941)
chain: MAAYLQWRRFVFFDKELVKEPLSNDGAAPGATPASGSAASKFLCLPPGITVCDSGRGSLVFGDMEGQIWFLPRSLQLTGFQAYKLRVTHLYQLKQHNILASVGEDEEGINPLVKIWNLEKRDGGNPLCTRIFPAIPGTEPTVVSCLTVHENLNFMAIGFTDGSVTLNKGDITRDRHSKTQILHKGNYPVTGLAFRQAGKTTHLFVVTTENVQSYIVSGKDYPRVELDTHGCGLRCSALSDPSQDLQFIVAGDECVYLYQPDERGPCFAFEGHKLIAHWFRGYLIIVSRDRKVSPKSEFTSRDSQSSDKQILNIYDLCNKFIAYSTVFEDVVDVLAEWGSLYVLTRDGRVHALQEKDTQTKLEMLFKKNLFEMAINLAKSQHLDSDGLAQIFMQYGDHLYSKGNHDGAVQQYIRTIGKLEPSYVIRKFLDAQRIHNLTAYLQTLHRQSLANADHTTLLLNCYTKLKDSSKLEEFIKKKSESEVHFDVETAIKVLRQAGYYSHALYLAENHAHHEWYLKIQLEDIKNYQEALRYIGKLPFEQAESNMKRYGKILMHHIPEQTTQLLKGLCTDYRPSLEGRSDREAPGCRANSEEFIPIFANNPRELKAFLEHMSEVQPDSPQGIYDTLLELRLQNWAHEKDPQVKEKLHAEAISLLKSGRFCDVFDKALVLCQMHDFQDGVLYLYEQGKLFQQIMHYHMQHEQYRQVISVCERHGEQDPSLWEQALSYFARKEEDCKEYVAAVLKHIENKNLMPPLLVVQTLAHNSTATLSVIRDYLVQKLQKQSQQIAQDELRVRRYREETTRIRQEIQELKASPKIFQKTKCSICNSALELPSVHFLCGHSFHQHCFESYSESDADCPTCLPENRKVMDMIRAQEQKRDLHDQFQHQLKCSNDSFSVIADYFGRGVFNKLTLLTDPPTARLTSSLEAGLQRDLLMHSRRGT
In the case of B3, the binding entry in experiment [2] is recorded as “binds”.

B4: HA–hVps39 (HeLa) (protein, UniProt Q96JC1 1-886)
chain: MHDAFEPVPILEKLPLQIDCLAAWEEWLLVGTKQGHLLLYRIRKDVVPADVASPESGSCNRFEVTLEKSNKNFSKKIQQIHVVSQFKILVSLLENNIYVHDLLTFQQITTVSKAKGASLFTCDLQHTETGEEVLRMCVAVKKKLQLYFWKDREFHELQGDFSVPDVPKSMAWCENSICVGFKRDYYLIRVDGKGSIKELFPTGKQLEPLVAPLADGKVAVGQDDLTVVLNEEGICTQKCALNWTDIPVAMEHQPPYIIAVLPRYVEIRTFEPRLLVQSIELQRPRFITSGGSNIIYVASNHFVWRLIPVPMATQIQQLLQDKQFELALQLAEMKDDSDSEKQQQIHHIKNLYAFNLFCQKRFDESMQVFAKLGTDPTHVMGLYPDLLPTDYRKQLQYPNPLPVLSGAELEKAHLALIDYLTQKRSQLVKKLNDSDHQSSTSPLMEGTPTIKSKKKLLQIIDTTLLKCYLHTNVALVAPLLRLENNHCHIEESEHVLKKAHKYSELIILYEKKGLHEKALQVLVDQSKKANSPLKGHERTVQYLQHLGTENLHLIFSYSVWVLRDFPEDGLKIFTEDLPEVESLPRDRVLGFLIENFKGLAIPYLEHIIHVWEETGSRFHNCLIQLYCEKVQGLMKEYLLSFPAGKTPVPAGEEEGELGEYRQKLLMFLEISSYYDPGRLICDFPFDGLLEERALLLGRMGKHEQALFIYVHILKDTRMAEEYCHKHYDRNKDGNKDVYLSLLRMYLSPPSIHCLGPIKLELLEPKANLQAALQVLELHHSKLDTTKALNLLPANTQINDIRIFLEKVLEENAQKKRFNQVLKNLLHAEFLRVQEERILHQQVKCIITEEKVCMVCKKKIGNSAFARYPNGVVVHYFCSKEVNPADT
As for B4, in the experiment with GST–Arl8b, the binding result is “no binding”.
